In article doi:10.1101/420679:
Results are given in words; binding and its absence hold for the method and conditions named. In cells and extracts the contact can be indirect. Some binding calls cover weakened binding; strength is not graded here.

Sequences of proteins named here, by UniProt entry; tags and fusion partners are left off. Residues count along the entry.
UniProt Q7KIN0, residues 17-1049: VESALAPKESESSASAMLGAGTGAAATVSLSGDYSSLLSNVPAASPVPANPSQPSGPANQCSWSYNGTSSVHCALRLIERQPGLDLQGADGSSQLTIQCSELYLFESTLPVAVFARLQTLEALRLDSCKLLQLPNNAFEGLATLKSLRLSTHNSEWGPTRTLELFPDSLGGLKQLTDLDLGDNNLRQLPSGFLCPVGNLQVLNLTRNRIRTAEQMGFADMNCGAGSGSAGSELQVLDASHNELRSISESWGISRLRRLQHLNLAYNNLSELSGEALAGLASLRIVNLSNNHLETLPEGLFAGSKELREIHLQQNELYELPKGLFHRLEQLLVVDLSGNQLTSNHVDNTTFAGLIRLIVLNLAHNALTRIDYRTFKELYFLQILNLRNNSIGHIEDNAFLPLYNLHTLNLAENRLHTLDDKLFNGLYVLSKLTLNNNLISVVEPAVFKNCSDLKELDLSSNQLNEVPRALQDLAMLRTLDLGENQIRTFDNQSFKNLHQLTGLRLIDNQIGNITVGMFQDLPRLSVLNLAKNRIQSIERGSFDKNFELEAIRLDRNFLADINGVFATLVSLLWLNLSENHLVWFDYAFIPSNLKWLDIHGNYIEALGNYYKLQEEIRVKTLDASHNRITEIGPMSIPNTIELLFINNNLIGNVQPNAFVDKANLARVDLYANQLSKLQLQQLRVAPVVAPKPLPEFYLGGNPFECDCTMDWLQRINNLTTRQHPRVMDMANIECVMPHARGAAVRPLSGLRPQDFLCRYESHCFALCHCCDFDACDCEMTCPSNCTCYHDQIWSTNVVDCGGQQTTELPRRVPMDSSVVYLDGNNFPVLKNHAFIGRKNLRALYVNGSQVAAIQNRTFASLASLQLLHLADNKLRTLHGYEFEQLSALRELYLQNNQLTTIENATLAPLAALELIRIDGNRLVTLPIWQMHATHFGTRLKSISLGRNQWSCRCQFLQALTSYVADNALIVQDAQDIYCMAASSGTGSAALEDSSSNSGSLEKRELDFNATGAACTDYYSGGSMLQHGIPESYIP
UniProt P03522, residues 17-511: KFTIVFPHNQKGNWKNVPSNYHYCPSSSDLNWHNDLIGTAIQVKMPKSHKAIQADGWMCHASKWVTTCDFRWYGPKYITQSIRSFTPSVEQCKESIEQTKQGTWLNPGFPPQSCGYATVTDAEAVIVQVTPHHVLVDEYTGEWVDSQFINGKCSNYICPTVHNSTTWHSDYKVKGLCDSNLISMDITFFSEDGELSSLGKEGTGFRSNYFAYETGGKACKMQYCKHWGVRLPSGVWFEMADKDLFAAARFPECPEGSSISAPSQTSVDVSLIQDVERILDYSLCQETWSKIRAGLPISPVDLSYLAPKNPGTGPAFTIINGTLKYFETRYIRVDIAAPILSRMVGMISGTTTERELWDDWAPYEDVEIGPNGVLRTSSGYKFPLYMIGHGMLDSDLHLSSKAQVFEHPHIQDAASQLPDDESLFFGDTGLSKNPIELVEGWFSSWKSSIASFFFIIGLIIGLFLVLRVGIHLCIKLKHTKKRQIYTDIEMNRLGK

Molecular target: Toll-7^ecto (ectodomain of Drosophila Toll-7), V5-tagged (Drosophila melanogaster) (UniProt Q7KIN0)
Test: co-IP

“VSV glycoprotein (VSV-G), on VSV-GFP virions (from UniProt P03522 17-511)” was tested, and the binding was “binds”.
